Test results reported in PubChem BioAssay AID493014 (National Center for Advancing Translational Sciences (NCATS), 2011).
In all, about 340,000 compounds went through this assay and about 170 (0.05%) were called active. Inconclusive results, whose numbers are uncertain, are shown with a selection of clear calls. The call rests on the fitted dose curve; in most records, active means well fitted inhibition curve with a large enough effect in the signal ratio, with a control signal flat (not every such curve was filed as active); inconclusive means small, poorly fitted or top-dose-only effect, or effect the other way, or a change in a side signal; inactive means flat fitted curve, though single readings scatter; the % refers to the signal ratio. Where the call is inconclusive, the potency comes from a doubtful curve fit.

Assay: qHTS Assay to Find Inhibitors of Chronic Active B-Cell Receptor Signaling;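 on activity change, negative = inhibition: plate controls were basal doxycycline-induced cells for no effect and cells given 10 µM MG132 for full effect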
Conditions: ABC-DLBCL IkBa-CBG/CBR reporter, luminescence ratio (green luciferase fused to IkBa over red control in TMD8 lymphoma cells), 4 h; activity change, negative = inhibition: at 46.1 µM (top of the series)
In short: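 Compounds up to 46 uM were incubated four hours with TMD8 cells whose green CBG68 luciferase is fused to IkappaBalpha; red CBR luminescence normalised the signal, and concentration-effect curves were fitted to fusion, red and ratio data.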
Potency means the concentration at half of the fitted maximal effect.

Compound	Potency	activity change, negative = inhibition
CCN(CC(=O)Nc1ccc(Cl)c(C(F)(F)F)c1)CC(=O)NC1CCS(=O)(=O)C1 (centres undefined)	inconclusive: 12.6 µM [falling, single point]	
O=c1[nH]c(C2CCN(S(=O)(=O)c3ccccc3)CC2)nc2c1nnn2Cc1ccc2c(c1)OCCO2		inconclusive: 2.61%
COc1ccc([C@H]2[C@H](C(=O)C(C)(C)C)N3N=Cc4ccccc4C3[C@]23N=C(c2ccccc2)OC3=O)cc1 (some centres undefined)		inconclusive: 6.66%
CCOc1ccc(CCNC(=O)C2CCN(S(=O)(=O)N3CCCCC3)CC2)cc1OCC		inconclusive: -2.66%
COc1ccccc1C1CC(c2ccc(Br)cc2)=NN1C(=O)c1cccnc1 (centres undefined)	inconclusive: 3.26 µM [falling, full curve]	
COc1cccc(Cn2cccc(NC(=O)Nc3ccc(C#N)cc3)c2=O)c1		inconclusive: 9.25%
COc1ccc(-c2cc(C(=O)NCc3ccc(F)cc3)c3c(-c4ccc(F)cc4)[nH]nc3n2)cc1OC		inactive
C=CCN(CC=C)CCOc1ccc2ccccc2c1		inconclusive: 6.02%
O=c1c2ccc(Cl)cc2[nH]c(=S)n1CCCN1CCOCC1		inconclusive: 2.49%
COc1ccc(/C=N/NC(=O)c2ccccc2O)cc1Cn1nnc2ccccc21	inconclusive: 35.5 µM [rising, single point]	
COc1ccc(-c2oc3ccc(-c4cc(OC)c(OC)c(OC)c4)cc3c2C(=O)c2ccc(OC)nc2)cc1		inconclusive: -11.1%
C[C@H]1CN([C@@H](C)CO)C(=O)c2cccc(NC(=O)C3CC3)c2O[C@H]1CN(C)S(=O)(=O)c1cccs1		inactive
COc1ccccc1NC(=O)COC(=O)c1cc(C)nc2ccccc12		inconclusive: -9.34%
C=C(c1cccc2ccccc12)P(=O)(O)O		inconclusive: 13.6%
CC(C)(C)c1ccc(/C=C2\CCn3c2nc2cc(C(=O)O)ccc2c3=O)cc1		inconclusive: 1.62%
CCN1C(=O)[C@H]2[C@@H](c3ccc(-c4cc(C(C)=O)cs4)cc3)N3CCC[C@@]3(C(=O)OC)[C@H]2C1=O		inactive
CC(=O)c1ccc(NC(=O)CCC(=O)OCC(=O)c2cccc([N+](=O)[O-])c2)cc1		inconclusive: -7.45%
O=C(COc1ccccc1Cl)Nc1cc(Cl)ccc1O	inconclusive: 10 µM [falling, partial curve]	
COc1cc(OC)c(NC(=O)c2ccccc2F)cc1Cl		inconclusive: -1.49%
CCOc1ccccc1N1CC(C(=O)Nc2cccc(S(=O)(=O)N3CCCCC3)c2)CC1=O (centres undefined)		inconclusive: 1.26%
COc1ccc2c(c1)c(C(=O)N1CCN(C)CC1)c(C)n2-c1ccccc1		inactive
O=C(Cn1nnc(-c2ccccc2)n1)OCc1csc(-c2ccccc2)n1		inconclusive: 4.72%
COc1cc(S(=O)(=O)N2CCN(Cc3ccccc3)CC2)ccc1Br		inconclusive: -5.53%
Cc1cccc(NC(=S)NN2CCOCC2)c1C	inconclusive: 32.6 µM [falling, partial curve, poor fit]	
COc1ccc(C(=O)NNC(=S)NC(=O)C(C)(C)C)cc1		inconclusive: -13.6%

Compound	Potency	activity change, negative = inhibition
CCCCc1nc(N2CCN(C(=O)c3ccco3)CC2)c(C#N)c2c1CCCC2		inconclusive: 1.55%
CCOC(=O)C1CCN(C/C=C/c2ccccc2OC)CC1		inconclusive: -2.98%
COc1cc(OC)cc(C(=O)NCC(=O)NC(C)c2ccccc2)c1 (centres undefined)		inactive
Cn1c(-c2ccccc2)c(/C=N/NC(=O)c2ccc(O)cc2)c2ccccc21	inconclusive: 31.6 µM [rising, single point]	
CCSc1nnc(NC(=O)[C@@H](NC(=O)c2cccc(C)c2)C(C)C)s1		inactive
Cc1ccccc1C(=O)Nc1ccc2c(c1)OCO2	inconclusive: 20 µM [falling, single point]	
N#C/C(=C(/O)c1cc2ccccc2o1)c1nc2ccccc2s1		inconclusive: 257%
Cc1cccc(OCC(=O)Nc2ccc(C(=O)Nc3ccccc3C(=O)O)cc2)c1C		inactive
COc1ccc(CNC(=O)/C(C)=C\C(=O)O)cc1		inconclusive: 8.03%
CCOc1ccc2nc(NC(=O)CC3Oc4ccccc4NC3=O)sc2c1 (centres undefined)	inconclusive: 7.08 µM [falling, partial curve, poor fit]	
O=C(CSc1ccccc1F)NCCCN1CCCC1=O		inconclusive: 7.92%
O=C(CNC(=O)c1ccccc1F)c1ccc(Br)cc1	inconclusive: 31.6 µM [falling, single point]	
COc1ccc(Nc2nc(OC)nc(N3CCN(c4ccc(OC)cc4)CC3)n2)cc1		inconclusive: -0.336%
O=C(CSc1nc(Nc2ccccc2)nc(N2CCOCC2)n1)N1CCCC1	inconclusive: 1.46 µM [falling, partial curve, poor fit]	
CCOc1ccc(NC(=O)c2nnn(CC(=O)Nc3ccccc3OC)c2N)cc1	inconclusive: 12.6 µM [falling, partial curve, poor fit]	
Cc1occc1-c1nnc(SCC(N)=O)n1Cc1ccccc1		inconclusive: 2.95%
Cc1oc(-c2cc(F)ccc2F)nc1CN1CCN(c2ncnc3ccccc23)CC1		inconclusive: -22.1%
CCN(CC)CCNc1c2c(c(C#N)c3nc4ccccc4n13)CCCC2	inconclusive: 1.3 µM [rising, full curve, poor fit]	
COc1ccc(CCN2CC(C(=O)NCCN3CCCC3=O)CCC2=O)cc1 (centres undefined)		inactive
COc1ccccc1NS(=O)(=O)c1ccc(C)c(C(=O)N2CCN(c3ccc(O)cc3)CC2)c1		inconclusive: 6.7%
c1ccc(-n2nnnc2NCCc2c[nH]c3ccccc23)cc1		inconclusive: 4.88%
CCN1CCc2c(sc(NC(=O)c3ccc(S(=O)(=O)N4CCOCC4)cc3)c2C(N)=O)C1		inactive
O=C(Cc1c(O)c2ccccc2[nH]c1=O)NCc1ccc(F)cc1		inconclusive: -14%
COc1ccc2[nH]c3c(c2c1)CCN1C(=O)C(CC(=O)NCCc2ccccn2)C[C@H](C(=O)N2CCCCC2)[C@@]31CCc1ccccc1 (some centres undefined)		inactive
